# Reference: PubChem BioAssay AID504467 (National Center for Advancing Translational Sciences (NCATS), 2011)
# Among all 330,000 compounds or so, about 7,700 (2.3%) were called active. Inconclusive results, whose numbers are uncertain, are shown with a selection of clear calls. Calls come from the whole dose curve; as a rule, active = well fitted inhibition curve with a large enough effect; inconclusive = small, poorly fitted or top-dose-only effect, or effect the other way; inactive = flat fitted curve, though single readings scatter. Potencies of inconclusive entries are doubtful fits and often do not repeat.
# Test: qHTS screen for small molecules that inhibit ELG1-dependent DNA repair in human embryonic kidney (HEK293T) cells expressing luciferase-tagged ELG1; note: nearly all actives have a fitted effect of over 55% in size
# Details: HEK293T ELG1-luciferase reporter, luminescence, 16 h, DNA damage induced by 5-fluorouridine; series mostly up to 46.1 µM
# How it was run: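 DMSO vehicle served as the neutral condition. Each well held 2,000 cells given 5-fluorouridine plus compound; after 16 hr at 37 °C/5% CO2, ONE-Glo was added and luciferase measured 30 min later.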
# Potency is the fitted concentration of half-maximal effect.
row,Structure (SMILES),Potency
1,CC(NC(=O)Nc1ccccc1F)C(C)(C)C (stereo not drawn),inactive
2,O=C(COc1ccc2c(c1)OCO2)Nc1cccc(F)c1,"inconclusive: 18.3 µM [activator, partial curve]"
3,CC1CCN(C(=O)COC(=O)c2ccc(=O)n(Cc3ccccc3)n2)CC1,"inconclusive: 29.1 µM [activator, single point]"
4,Cc1ccc(-c2cc(-c3ccccc3[N+](=O)[O-])[nH]n2)c(O)c1,"inconclusive: 1.16 µM [activator, partial curve]"
5,Cc1nn(-c2ccccc2)c(Cl)c1/C=C1\C(=O)N(C)C(=S)N1C,"inconclusive: 20.6 µM [inhibitor, single point]"
6,CCN1C(=O)[C@H]2[C@@H](c3ccc(-c4ccccc4)cc3)N[C@@](CC(C)C)(C(=O)OC)[C@H]2C1=O,inactive
7,CCOc1ccc(N2C(=O)CC(N3CCC(O)(c4ccc(Br)cc4)CC3)C2=O)cc1 (stereo not drawn),"inconclusive: 20.6 µM [inhibitor, partial curve, poor fit]"
8,CCN(CC)CCn1c(=N)n(CC(O)c2ccco2)c2ccccc21 (stereo not drawn),"inconclusive: 13 µM [inhibitor, partial curve, poor fit]"
9,CC(=O)c1c(C)[nH]c(C(=O)COC(=O)c2cccc(S(=O)(=O)N(C)c3ccccc3)c2)c1C,active: 18.4 µM
10,C/C(=N/NC(=O)CNC(=O)C(c1ccccc1)c1ccccc1)c1ccco1,"inconclusive: 29.1 µM [activator, single point]"
11,CCOC(=O)N1CCN(S(=O)(=O)N2CCCC(C(=O)NCCCN3CCCCC3)C2)CC1 (stereo not drawn),inactive
12,CC(C)(O)C#Cc1ccc(CNC[C@H]2O[C@@H](n3cnc4c(N)ncnc43)[C@H](O)[C@@H]2O)s1,"inconclusive: 18.3 µM [activator, single point]"
13,CCN(CC(=O)Nc1cccc(C(C)=O)c1)S(=O)(=O)c1ccccc1,inactive
14,COc1ccc(CNC(=O)c2nn(C)c3c2CS(=O)(=O)c2ccccc2-3)cc1,inactive
15,O=S(=O)(c1ccc(Cl)cc1)N1CCC2(CC1)CO2,inactive
16,O=C(O)c1ccccc1SC1CC(=O)N(c2cccc3ccccc23)C1=O (stereo not drawn),inactive
17,CCOC(=O)c1sc2nc(C)nc(SCC(=O)N(CC)C3CCS(=O)(=O)C3)c2c1C (stereo not drawn),active: 16.4 µM
18,COc1cccc(Oc2cn[nH]c2-c2ccc(OC)cc2O)c1,"inconclusive: 23.1 µM [inhibitor, single point]"
19,O=C1OC[C@@H]2CCCN2C(=O)[C@@H](CC(=O)N(CCO)Cc2ccccc2)C/C=C\C[C@@H]1Cc1ccc(F)cc1,inactive
20,CC(C)CN1CCN(Cc2cccc3cccnc23)CC1CCO (stereo not drawn),inactive
21,COc1ccc(Nc2nc(NCc3ccco3)nc(N3CCOCC3)n2)cc1,"inconclusive: 29.1 µM [inhibitor, single point]"
22,Cc1nc2c(cnn2-c2ccc(Cl)cc2)c(=O)n1-c1ccc(N2CCC(C)CC2)cc1,"inconclusive: 2.59 µM [inhibitor, partial curve]"
23,CCNS(=O)(=O)c1ccc(OCCNS(C)(=O)=O)cc1,"inconclusive: 32.6 µM [inhibitor, partial curve, poor fit]"
24,Cc1ccn2c(=O)nc(SCC(=O)c3ccccc3)nc2c1,"inconclusive: 10.3 µM [activator, partial curve]"
25,Cc1ccc(C(c2nnnn2CC2CCCO2)N2CCN(C(=O)c3ccco3)CC2)cc1 (stereo not drawn),inactive

row,Structure (SMILES),Potency
1,CC1CCCCC12NC(=O)N(CC(=O)OCC(=O)N(C)C1CCCCC1)C2=O (stereo not drawn),inactive
2,c1ccc(SCc2cc(-c3ccccc3)no2)cc1,"inconclusive: 16.4 µM [activator, partial curve]"
3,CCOc1ccc2c(c1)[N+](C)(C)C(C)(C)C=C2C,inactive
4,COc1ccccc1OCC(=O)NCCS(=O)(=O)N1CCN(c2ccc(F)cc2)CC1,inactive
5,CCOc1cc(CNCCSc2nnnn2C)cc(Br)c1OCc1ccccc1F,inactive
6,O=C(Nc1ccc(-c2n[nH]c(=S)o2)cc1)c1ccccc1Br,inactive
7,CCN(CC)c1ccc2cc(C(C)=O)c(=O)oc2c1,"inconclusive: 29.1 µM [activator, single point]"
8,COc1ccc(N2C(=O)CSC23C(=O)N(CC(=O)NC2CCCC2)c2ccccc23)cc1 (stereo not drawn),inactive
9,CC(C)=N/N=C1\NC(=O)C(C)S1 (stereo not drawn),inactive
10,Cc1cc(C)nc(N/C(=N\S(=O)(=O)Cc2ccccc2)Nc2cccc(Cl)c2C)n1,inactive
11,COC(=O)c1sc(S(=O)(=O)Nc2ccc(C)c(C)c2)c(C(=O)OC)c1C,inactive
12,CCc1ccc(Nc2n[n+](-c3ccccc3)c(-c3ccc(OC)c(Br)c3)s2)cc1,inactive
13,O=C(CCCNC(=O)/C(=C/c1ccccc1F)NC(=O)c1ccccc1)OCc1ccccc1,"inconclusive: 25.9 µM [inhibitor, single point]"
14,CCOC(=O)c1c(C)[nH]c(C)c1C(=O)CSc1nnc(-c2ccco2)n1Cc1ccccc1,"inconclusive: 3.66 µM [inhibitor, partial curve, poor fit]"
15,COc1ccc([C@H]2CC(=O)C=C(c3ccc(OC)cc3OC)C2)cc1,"inconclusive: 0.651 µM [inhibitor, single point]"
16,CCC(C(=O)OCC(=O)Nc1c(Cl)cccc1Cl)c1ccccc1 (stereo not drawn),"inconclusive: 29.1 µM [inhibitor, single point]"
17,Cc1ccccc1S(=O)(=O)Cc1ccc(C(=O)NC2CCCCC2C)o1 (stereo not drawn),"inconclusive: 29.1 µM [inhibitor, single point]"
18,Cc1ccc(OCC(=O)c2cc(C)n(C)c2C)c([N+](=O)[O-])n1,"inconclusive: 9.2 µM [activator, partial curve]"
19,COc1ccc(S(N)(=O)=O)cc1C(=O)NCC(C)(C)N1CCOCC1,inactive
20,Cc1ccc(-c2csc3ncnc(Nc4ccc(N5CCOCC5)cc4)c23)cc1,"inconclusive: 16.4 µM [inhibitor, single point]"
21,COc1cccc(S(=O)(=O)NCc2ccc(C(=O)N3CCN(Cc4ccccc4)CC3)cc2)c1,"inconclusive: 16.4 µM [inhibitor, partial curve]"
22,CC(OC(=O)c1ccccc1C(=O)N(C)c1ccccc1)C(=O)Nc1ccc(C(N)=O)cc1 (stereo not drawn),inactive
23,COc1ccc(CCNC(=O)/C(C#N)=C2\N=C(NC(=O)c3cccs3)c3ccccc32)cc1,"inconclusive: 3.26 µM [inhibitor, partial curve, poor fit]"
24,CCOCC(=O)Nc1ccc([N+](=O)[O-])cc1C,"inconclusive: 6.51 µM [inhibitor, single point]"
25,O=C(/C=C/c1ccc(Cl)cc1Cl)NC(=S)Nc1ccc(CN2CCOCC2)cc1,inactive

# Looked up above:
# For Potency, O=C(Nc1ccc(-c2n[nH]c(=S)o2)cc1)c1ccccc1Br has the entry inactive
# For Potency, O=C1OC[C@@H]2CCCN2C(=O)[C@@H](CC(=O)N(CCO)Cc2ccccc2)C/C=C\C[C@@H]1Cc1ccc(F)cc1 has the entry inactive
# For Potency, COc1cccc(S(=O)(=O)NCc2ccc(C(=O)N3CCN(Cc4ccccc4)CC3)cc2)c1 has the entry inconclusive: 16.4 µM [inhibitor, partial curve]
# For Potency, CCOCC(=O)Nc1ccc([N+](=O)[O-])cc1C has the entry inconclusive: 6.51 µM [inhibitor, single point]
# For Potency, COc1ccccc1OCC(=O)NCCS(=O)(=O)N1CCN(c2ccc(F)cc2)CC1 has the entry inactive

# The list continues:

row,Structure (SMILES),Potency
1,O=C(Nc1nc(N2C(=O)c3ccccc3C2=O)n(-c2ccccc2)n1)c1ccc(Cl)cc1,inactive
2,Cc1ccc2nc(N(CCCN(C)C)C(=O)CS(=O)(=O)c3ccccc3)sc2c1,inactive
3,Cc1ncsc1CCOC(=O)C1C2CC3CC(C2)CC1C3 (stereo not drawn),inactive
4,CCOC(=O)CC1(NC(=O)C2CCC(=O)N(Cc3ccccc3OC)C2)CCCCC1 (stereo not drawn),"inconclusive: 13 µM [activator, partial curve, poor fit]"
5,CCSc1nc2ccccc2n1CC(=O)O,inactive
6,Cc1ccc(S(=O)(=O)c2c(N)n(CC3CCOC3)c3nc4ccccc4nc23)cc1 (stereo not drawn),"inconclusive: 20.6 µM [inhibitor, single point]"
7,COc1ccc(C(=O)C23CC4CC(C2)CC(C(=O)c2ccc(OC)cc2)(C4)C3)cc1,active: 5.8 µM
8,Cc1ccc(C(=O)Oc2cc(C)n(C)c(=O)c2)cc1,"inconclusive: 13 µM [inhibitor, single point]"
9,COc1cc(/C=C2\SC(=S)N(CCC(=O)NCCc3ccccc3)C2=O)cc(OC)c1OC,inactive
10,Cc1c(C)n2c(SCC(=O)Nc3cccc4ccccc34)nnc2[nH]c1=O,inactive
11,COc1ccc(CNCCC(c2ccc(OC(C)C)cc2)C(C)C)cc1OC (stereo not drawn),inactive
12,Cc1c(NC(=O)CN2CCCC(C)C2)ccc2nsnc12 (stereo not drawn),inactive
13,c1ccc(N2CCN(c3nc4cc5c(cc4s3)OCCO5)CC2)cc1,"inconclusive: 0.58 µM [activator, full curve]"
14,Cc1ccc(-n2nc(C)c3c(-c4cccs4)c(C#N)c(N)nc32)cc1,active: 12.6 µM
15,CC(=O)Nc1ccc(S(=O)(=O)N2CCN(S(=O)(=O)c3ccc(NC(C)=O)cc3)CC2)cc1,inactive
16,C[C@H](CO)N1C[C@H](C)[C@@H](CN(C)S(=O)(=O)c2cn(C)cn2)Oc2c(NS(=O)(=O)c3cn(C)cn3)cccc2C1=O,inactive
17,CCOc1nc(OCC)nc(N2CCC(C)CC2)n1,"inconclusive: 18.4 µM [inhibitor, single point]"
18,Cc1ccc(C(=O)Nc2cccc(C(=O)NC3CCCC3)c2)cc1,inactive
19,COc1ccc(Cc2nnc(NC(=O)Cn3cnc4c3c(=O)n(C)c(=O)n4C)s2)cc1,"inconclusive: 16.4 µM [activator, partial curve, poor fit]"
20,CCOc1ccc(C(C(=O)NCC2CCCO2)N(C(=O)c2snc(C(N)=O)c2N)c2ccc(F)cc2)cc1 (stereo not drawn),"inconclusive: 20.6 µM [inhibitor, partial curve]"
21,Cc1nnc(N2C(=O)C(=O)/C(=C(\O)c3ccc4c(c3)CC(C)O4)C2c2ccccc2)s1 (stereo not drawn),"inconclusive: 32.6 µM [activator, partial curve, poor fit]"
22,CC(C)(C)c1ccc(C(=O)NCCC(=O)Nc2ccc(S(=O)(=O)Nc3nccs3)cc2)cc1,"inconclusive: 0.231 µM [activator, single point]"
23,CCc1ccc(OCC(=O)N/N=C(\C)c2ccc(-n3ccnc3)cc2)cc1,inactive
